For two substances, binding results are on record in doi:10.1101/2023.04.26.538370.

Protein sequences, listed by entry. Tags and fused reporters are not part of them.
UniProt P20357: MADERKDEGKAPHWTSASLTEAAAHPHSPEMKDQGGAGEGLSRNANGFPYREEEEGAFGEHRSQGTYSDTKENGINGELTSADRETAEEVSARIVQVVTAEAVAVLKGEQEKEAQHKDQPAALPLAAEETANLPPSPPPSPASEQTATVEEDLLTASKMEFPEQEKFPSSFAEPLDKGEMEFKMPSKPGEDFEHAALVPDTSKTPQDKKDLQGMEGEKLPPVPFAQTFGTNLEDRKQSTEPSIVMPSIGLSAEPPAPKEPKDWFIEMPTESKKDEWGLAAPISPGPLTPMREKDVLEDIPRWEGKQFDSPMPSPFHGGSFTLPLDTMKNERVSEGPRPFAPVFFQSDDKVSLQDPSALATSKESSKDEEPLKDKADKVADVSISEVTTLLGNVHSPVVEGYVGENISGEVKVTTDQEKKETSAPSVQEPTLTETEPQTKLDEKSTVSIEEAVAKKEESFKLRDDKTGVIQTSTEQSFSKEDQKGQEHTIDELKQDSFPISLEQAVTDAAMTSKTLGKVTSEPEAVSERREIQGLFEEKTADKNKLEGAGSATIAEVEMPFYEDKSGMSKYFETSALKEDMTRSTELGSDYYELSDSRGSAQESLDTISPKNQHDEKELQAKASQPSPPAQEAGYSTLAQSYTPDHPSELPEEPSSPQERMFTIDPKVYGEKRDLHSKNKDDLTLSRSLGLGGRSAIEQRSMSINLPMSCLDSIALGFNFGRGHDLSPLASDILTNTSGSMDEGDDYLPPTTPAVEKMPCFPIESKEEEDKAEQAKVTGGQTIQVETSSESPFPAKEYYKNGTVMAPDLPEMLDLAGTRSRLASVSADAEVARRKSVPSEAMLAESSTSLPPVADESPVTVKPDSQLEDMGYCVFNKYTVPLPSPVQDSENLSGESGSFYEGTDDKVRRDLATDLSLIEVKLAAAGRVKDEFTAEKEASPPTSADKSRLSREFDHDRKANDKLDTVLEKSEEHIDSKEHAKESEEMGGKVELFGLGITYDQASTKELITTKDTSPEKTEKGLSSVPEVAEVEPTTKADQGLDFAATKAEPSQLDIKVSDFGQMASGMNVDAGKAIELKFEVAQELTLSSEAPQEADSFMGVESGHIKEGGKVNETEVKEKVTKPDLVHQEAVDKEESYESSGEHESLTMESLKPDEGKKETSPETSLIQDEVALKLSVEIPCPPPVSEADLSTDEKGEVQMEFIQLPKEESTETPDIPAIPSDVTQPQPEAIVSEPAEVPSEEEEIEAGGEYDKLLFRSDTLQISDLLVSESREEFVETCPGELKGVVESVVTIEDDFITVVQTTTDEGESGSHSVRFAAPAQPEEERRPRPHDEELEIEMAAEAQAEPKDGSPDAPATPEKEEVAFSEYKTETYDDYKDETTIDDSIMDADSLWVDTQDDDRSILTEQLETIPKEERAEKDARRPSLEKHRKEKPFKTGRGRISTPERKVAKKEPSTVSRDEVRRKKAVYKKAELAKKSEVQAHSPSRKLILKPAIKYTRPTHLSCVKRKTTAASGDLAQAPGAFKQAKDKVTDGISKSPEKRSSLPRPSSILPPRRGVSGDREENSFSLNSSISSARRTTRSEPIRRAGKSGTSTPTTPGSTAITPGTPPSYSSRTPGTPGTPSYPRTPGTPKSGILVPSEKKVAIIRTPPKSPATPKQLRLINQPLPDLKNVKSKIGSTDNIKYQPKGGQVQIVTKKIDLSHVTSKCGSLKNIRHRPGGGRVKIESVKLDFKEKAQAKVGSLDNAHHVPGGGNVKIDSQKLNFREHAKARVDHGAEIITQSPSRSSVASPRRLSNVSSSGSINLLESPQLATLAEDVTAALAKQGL
UniProt Q14204: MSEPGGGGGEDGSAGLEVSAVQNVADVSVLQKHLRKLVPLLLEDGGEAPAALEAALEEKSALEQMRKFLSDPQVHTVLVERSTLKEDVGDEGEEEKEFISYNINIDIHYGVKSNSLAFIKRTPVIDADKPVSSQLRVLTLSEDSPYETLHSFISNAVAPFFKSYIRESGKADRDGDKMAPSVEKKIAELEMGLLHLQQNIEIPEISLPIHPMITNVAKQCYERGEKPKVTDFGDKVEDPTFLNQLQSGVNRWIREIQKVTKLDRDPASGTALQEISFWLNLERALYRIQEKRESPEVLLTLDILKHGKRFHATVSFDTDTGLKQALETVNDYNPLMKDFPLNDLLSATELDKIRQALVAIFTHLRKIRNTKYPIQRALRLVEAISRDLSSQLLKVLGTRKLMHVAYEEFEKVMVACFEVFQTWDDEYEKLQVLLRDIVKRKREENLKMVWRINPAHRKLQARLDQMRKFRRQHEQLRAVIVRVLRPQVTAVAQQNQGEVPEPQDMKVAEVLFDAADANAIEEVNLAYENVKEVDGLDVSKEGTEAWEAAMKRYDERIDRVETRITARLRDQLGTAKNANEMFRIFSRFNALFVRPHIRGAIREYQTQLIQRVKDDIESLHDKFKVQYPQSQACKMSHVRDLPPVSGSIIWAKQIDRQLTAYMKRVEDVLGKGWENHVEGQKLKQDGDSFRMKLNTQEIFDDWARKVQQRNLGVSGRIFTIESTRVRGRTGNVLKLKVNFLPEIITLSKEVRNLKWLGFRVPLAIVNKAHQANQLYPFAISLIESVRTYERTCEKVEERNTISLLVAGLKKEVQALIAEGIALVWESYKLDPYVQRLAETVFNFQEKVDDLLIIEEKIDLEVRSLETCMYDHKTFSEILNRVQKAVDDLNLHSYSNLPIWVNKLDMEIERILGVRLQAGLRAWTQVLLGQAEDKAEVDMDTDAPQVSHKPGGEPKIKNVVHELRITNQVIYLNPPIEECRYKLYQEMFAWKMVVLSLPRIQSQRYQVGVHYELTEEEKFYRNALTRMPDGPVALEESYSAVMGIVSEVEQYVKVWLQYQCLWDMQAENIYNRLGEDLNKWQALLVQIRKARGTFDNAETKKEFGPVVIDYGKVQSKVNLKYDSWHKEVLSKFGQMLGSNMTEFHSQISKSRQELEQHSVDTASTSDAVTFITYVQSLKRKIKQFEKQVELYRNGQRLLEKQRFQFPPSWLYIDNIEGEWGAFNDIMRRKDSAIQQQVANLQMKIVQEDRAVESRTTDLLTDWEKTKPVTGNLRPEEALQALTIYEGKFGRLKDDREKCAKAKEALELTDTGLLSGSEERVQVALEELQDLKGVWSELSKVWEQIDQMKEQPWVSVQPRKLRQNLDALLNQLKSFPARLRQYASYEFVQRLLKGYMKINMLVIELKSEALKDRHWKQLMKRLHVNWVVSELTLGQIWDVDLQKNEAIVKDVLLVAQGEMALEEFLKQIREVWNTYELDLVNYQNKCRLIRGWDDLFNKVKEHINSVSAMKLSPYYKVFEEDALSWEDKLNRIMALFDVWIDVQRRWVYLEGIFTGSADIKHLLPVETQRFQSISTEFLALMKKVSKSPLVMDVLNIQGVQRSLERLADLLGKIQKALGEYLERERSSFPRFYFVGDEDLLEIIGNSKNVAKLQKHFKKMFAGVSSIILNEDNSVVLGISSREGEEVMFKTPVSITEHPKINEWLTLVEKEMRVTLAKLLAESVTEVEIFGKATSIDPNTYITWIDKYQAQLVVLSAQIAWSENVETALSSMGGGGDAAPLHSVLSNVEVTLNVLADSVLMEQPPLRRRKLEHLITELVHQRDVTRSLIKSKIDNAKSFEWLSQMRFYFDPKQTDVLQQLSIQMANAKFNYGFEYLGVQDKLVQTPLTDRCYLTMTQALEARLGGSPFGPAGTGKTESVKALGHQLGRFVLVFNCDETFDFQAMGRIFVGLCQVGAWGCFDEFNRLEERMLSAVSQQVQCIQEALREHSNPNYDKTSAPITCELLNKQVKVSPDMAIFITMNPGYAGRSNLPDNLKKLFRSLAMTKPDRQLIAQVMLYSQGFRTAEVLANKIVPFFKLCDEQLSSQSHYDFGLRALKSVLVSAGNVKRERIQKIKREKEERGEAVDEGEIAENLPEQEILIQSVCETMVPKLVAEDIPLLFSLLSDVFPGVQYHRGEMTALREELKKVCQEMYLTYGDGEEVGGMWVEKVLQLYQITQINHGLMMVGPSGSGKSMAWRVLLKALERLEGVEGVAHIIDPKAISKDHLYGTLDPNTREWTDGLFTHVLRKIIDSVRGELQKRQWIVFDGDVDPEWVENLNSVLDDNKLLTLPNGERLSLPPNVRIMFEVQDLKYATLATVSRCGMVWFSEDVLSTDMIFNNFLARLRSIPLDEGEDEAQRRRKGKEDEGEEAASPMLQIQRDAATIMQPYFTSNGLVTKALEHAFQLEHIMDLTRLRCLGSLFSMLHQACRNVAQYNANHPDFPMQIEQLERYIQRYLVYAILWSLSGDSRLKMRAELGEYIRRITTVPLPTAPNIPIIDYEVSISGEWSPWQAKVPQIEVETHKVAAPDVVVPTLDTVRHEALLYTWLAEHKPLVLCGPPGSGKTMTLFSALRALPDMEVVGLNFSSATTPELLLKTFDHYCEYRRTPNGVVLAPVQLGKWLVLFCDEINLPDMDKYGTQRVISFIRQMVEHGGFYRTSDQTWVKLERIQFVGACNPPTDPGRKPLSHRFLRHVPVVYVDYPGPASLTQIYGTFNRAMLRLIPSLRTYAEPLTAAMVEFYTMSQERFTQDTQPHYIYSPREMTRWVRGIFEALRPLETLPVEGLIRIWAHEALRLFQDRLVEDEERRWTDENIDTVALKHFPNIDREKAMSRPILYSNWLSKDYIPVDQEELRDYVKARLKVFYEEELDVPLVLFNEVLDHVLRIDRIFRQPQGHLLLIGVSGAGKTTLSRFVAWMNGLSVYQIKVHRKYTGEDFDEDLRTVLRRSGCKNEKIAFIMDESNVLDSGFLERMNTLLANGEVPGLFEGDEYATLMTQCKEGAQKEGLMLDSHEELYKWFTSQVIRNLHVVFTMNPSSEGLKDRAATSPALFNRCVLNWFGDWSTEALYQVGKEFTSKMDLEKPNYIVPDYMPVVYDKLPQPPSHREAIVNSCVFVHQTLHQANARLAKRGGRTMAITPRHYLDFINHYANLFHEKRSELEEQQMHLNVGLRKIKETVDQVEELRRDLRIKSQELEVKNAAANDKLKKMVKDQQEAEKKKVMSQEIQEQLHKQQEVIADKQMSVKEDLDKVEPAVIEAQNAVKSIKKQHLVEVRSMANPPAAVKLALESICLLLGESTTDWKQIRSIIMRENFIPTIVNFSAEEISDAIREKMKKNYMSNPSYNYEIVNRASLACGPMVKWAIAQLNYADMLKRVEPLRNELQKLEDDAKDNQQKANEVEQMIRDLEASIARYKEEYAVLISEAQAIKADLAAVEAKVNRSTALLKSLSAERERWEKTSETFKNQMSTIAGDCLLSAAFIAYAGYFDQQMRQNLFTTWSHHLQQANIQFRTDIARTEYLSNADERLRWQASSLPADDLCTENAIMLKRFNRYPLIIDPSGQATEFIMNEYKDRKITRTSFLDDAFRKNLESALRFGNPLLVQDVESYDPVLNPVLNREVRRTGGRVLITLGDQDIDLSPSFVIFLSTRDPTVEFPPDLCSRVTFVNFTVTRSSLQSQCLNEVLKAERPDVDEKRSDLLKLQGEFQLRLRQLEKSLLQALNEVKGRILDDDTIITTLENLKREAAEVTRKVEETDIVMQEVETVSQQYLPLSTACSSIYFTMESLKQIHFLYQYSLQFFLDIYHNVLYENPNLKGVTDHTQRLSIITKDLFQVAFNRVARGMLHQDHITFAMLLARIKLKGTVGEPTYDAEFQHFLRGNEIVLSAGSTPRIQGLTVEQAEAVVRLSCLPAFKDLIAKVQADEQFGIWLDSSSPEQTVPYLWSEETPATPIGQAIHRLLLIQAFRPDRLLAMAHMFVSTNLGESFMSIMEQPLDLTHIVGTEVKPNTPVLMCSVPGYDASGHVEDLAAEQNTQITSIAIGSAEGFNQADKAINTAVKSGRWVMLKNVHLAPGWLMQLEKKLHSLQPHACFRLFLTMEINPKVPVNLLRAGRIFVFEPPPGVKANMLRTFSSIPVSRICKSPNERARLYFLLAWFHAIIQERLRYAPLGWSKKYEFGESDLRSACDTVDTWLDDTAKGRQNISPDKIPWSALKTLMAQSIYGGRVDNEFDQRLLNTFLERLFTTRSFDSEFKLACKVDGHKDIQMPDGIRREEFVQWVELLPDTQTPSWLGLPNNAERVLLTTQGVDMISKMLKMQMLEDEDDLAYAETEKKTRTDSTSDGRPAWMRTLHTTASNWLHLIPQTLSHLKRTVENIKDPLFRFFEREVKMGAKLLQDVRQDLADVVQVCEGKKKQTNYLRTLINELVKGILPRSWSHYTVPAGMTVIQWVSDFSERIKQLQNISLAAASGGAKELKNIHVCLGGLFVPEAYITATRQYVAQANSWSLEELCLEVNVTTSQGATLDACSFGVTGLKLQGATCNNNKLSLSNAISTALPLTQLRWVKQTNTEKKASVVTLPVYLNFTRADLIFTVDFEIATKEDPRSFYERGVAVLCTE

Experiment [1] has as its target T1, GFP-MAP2C, wild type (pAcGFP-His-MAP2C), expressed in HEK293 cells (human) (UniProt P11137).
T1 sequence: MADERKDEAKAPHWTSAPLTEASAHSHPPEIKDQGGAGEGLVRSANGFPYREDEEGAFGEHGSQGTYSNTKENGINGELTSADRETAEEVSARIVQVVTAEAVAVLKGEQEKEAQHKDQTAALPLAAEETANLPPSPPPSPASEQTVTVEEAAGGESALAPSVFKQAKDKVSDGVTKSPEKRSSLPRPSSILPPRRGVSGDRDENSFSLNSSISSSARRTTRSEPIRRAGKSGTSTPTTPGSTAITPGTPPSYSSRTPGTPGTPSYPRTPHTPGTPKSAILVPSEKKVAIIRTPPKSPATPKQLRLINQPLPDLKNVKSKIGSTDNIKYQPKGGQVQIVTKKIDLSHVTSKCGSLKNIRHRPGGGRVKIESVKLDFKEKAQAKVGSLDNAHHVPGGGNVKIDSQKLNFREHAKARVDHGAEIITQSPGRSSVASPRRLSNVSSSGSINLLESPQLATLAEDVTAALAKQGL
Description: co-IP.

Experiment [2] deals with MAP2, endogenous, long isoforms (mouse brain) (mouse (endogenous in mouse brain)) (UniProt P20357). Description: co-IP.

These are yes or no findings as the source states them, for the method shown. In cells and extracts the contact can be indirect. Some results given as binding are weak or reduced against the parent protein; the word gives no strength. For some assays here: Sequences can lack the tags named with a protein.

In the case of “DHC1 (cytoplasmic Dynein heavy chain) expressed from plasmid in HEK293 cells (from UniProt Q14204 1-4646)”, the binding entry in experiment [1] is listed as “binds”. With “cytoplasmic Dynein heavy chain (DHC1), endogenous (mouse brain) (from UniProt Q9JHU4 1-4644)”, the binding entry in experiment [2] is listed as “binds”.
